Protein sequences can lack the tags named with them.
Test system: T1, PhoB (Bacteroides fragilis YCH46)
T1 sequence (looked up): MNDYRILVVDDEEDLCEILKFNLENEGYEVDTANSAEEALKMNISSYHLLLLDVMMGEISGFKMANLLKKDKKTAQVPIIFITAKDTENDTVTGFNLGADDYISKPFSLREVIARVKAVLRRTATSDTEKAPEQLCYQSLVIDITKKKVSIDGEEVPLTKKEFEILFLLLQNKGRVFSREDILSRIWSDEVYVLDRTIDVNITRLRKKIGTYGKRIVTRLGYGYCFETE
Assay: EMSA
Details: PhoB 1.5 or 15 uM, 10 ng DNA, 10 mM MgCl2; EMSA: 50 mM Tris-HCl pH 7.5, 50 mM KCl, 10 mM MgCl2, 0.5 mM EDTA, 30 min at 25 C; 5% polyacrylamide gel. PS B and PS E promoter fragments; recombinant protein; residues 1-229; label: none (SYBR Green I stain); probe letters rebuilt from the primers and the genome

Sequence: AACCTTGCTGCTGAACAGGCCGAATGCCTCGGTAAAAAGGAAAAGCACAATCAGCAGAATCGTAATACTCGTTACAAAACCGCTACAGGTCAATATTCCTTCTATAATTCTTTCAAAAACCTTCTTCATACCTTTTGATTTTCATGATGCAAAGAAACGGAGTAAGTATTAAGGAGGTGTGAATACGGTTTGAAGGAACTGTTTCAAACCTGTTACGTTTCTGTTACAAGACAAGATGCGGCACGTTTTGAAACAGGAATGTAACACGCTATTGCTTTATTTGCACATAAAATAGAATCCACCACAGGATTCACCACAGAGTACACAGAGTCTCGCAGAGAACACAGACTCTCGCAGAGAAATTCGTTTTCTCTAAAATACTGTAACAAAAGATTAAAGACCTGTGGAACTCTGTGTTACTCTGTGGTGAATCAAACTCAAAACTTAATCATATGAAAGTTAGAACTATCTTATTCGCCGCCCTCTCACTCGCAGCATTGCATGCCAACGCT (double strand) [pstC promoter fragment]
- binding result: binds
